In the supplement of paper PMC12595434, “Development of retinoid nuclear receptor pathway antagonists through targeting aldehyde dehydrogenase 1A3” (iScience, 2025):
The list shows a part of the results. Single values of this set are uncertain.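 Many melting curves are irregular; where none melted, Tm was taken as 64 °C.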

Protein sequences, listed by entry. Tags and fused reporters are not part of them. Lines headed by an entry give the natural chain unless they say otherwise; changes in a name come on top.
UniProt Q9HB20: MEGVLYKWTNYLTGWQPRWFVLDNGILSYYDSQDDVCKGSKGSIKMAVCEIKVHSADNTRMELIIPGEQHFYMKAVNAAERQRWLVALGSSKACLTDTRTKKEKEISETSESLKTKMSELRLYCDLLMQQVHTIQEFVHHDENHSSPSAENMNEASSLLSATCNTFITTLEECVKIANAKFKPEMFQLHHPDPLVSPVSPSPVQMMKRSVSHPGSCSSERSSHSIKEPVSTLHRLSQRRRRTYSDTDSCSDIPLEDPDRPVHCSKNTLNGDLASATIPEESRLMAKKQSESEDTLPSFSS
UniProt Q9NRG0: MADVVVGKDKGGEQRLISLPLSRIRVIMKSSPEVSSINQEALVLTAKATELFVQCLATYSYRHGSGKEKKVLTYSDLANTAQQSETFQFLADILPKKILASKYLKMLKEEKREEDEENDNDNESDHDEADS
UniProt Q9NP73: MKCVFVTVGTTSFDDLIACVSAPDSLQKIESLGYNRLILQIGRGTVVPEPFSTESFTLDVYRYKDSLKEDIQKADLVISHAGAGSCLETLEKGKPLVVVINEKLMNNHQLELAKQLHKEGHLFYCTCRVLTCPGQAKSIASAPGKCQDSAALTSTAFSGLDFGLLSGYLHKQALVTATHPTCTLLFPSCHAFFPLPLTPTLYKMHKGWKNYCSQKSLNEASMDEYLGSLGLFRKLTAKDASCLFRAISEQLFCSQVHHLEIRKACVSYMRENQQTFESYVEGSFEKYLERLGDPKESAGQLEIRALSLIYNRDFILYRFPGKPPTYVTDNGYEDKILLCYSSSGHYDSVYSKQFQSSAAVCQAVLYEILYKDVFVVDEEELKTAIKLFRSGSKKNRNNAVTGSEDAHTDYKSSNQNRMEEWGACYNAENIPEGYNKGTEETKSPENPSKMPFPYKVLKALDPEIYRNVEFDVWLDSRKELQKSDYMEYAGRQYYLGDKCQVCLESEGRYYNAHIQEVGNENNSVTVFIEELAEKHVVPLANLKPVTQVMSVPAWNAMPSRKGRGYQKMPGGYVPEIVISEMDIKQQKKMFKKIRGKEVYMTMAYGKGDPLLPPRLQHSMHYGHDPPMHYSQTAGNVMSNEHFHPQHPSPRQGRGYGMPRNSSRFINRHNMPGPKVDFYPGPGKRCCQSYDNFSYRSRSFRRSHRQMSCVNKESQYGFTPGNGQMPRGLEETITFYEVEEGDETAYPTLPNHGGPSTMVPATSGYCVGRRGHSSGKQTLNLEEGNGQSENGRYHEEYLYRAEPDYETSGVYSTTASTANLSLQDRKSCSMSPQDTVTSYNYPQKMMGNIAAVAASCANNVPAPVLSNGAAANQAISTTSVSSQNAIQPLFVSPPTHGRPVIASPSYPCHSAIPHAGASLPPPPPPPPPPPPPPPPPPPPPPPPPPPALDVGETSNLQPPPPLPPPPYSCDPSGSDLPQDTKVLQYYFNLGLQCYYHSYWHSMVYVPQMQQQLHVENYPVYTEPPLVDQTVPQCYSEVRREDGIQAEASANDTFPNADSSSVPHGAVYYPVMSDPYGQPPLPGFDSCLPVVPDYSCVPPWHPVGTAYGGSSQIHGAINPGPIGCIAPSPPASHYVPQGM
UniProt Q9NTM9: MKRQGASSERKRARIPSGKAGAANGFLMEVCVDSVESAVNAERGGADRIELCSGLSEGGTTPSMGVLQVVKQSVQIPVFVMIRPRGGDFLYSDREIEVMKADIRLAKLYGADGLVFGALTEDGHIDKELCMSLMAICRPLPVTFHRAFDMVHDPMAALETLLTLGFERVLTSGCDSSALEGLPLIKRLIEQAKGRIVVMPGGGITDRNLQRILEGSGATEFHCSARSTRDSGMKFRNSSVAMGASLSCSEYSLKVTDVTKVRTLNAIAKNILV
UniProt Q9NPF5, whole entry: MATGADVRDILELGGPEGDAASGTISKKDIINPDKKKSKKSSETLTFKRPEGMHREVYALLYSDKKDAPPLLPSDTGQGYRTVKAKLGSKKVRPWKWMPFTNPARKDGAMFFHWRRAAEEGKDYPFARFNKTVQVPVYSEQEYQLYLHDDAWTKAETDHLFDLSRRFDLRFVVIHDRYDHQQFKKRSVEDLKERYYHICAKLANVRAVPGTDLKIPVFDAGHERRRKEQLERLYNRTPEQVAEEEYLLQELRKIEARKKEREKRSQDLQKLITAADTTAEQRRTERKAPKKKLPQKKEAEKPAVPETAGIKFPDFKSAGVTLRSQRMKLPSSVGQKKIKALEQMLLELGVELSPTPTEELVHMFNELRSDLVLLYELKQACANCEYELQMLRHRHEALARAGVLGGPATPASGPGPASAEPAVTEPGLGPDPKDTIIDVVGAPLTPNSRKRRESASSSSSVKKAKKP
UniProt Q9NQA3: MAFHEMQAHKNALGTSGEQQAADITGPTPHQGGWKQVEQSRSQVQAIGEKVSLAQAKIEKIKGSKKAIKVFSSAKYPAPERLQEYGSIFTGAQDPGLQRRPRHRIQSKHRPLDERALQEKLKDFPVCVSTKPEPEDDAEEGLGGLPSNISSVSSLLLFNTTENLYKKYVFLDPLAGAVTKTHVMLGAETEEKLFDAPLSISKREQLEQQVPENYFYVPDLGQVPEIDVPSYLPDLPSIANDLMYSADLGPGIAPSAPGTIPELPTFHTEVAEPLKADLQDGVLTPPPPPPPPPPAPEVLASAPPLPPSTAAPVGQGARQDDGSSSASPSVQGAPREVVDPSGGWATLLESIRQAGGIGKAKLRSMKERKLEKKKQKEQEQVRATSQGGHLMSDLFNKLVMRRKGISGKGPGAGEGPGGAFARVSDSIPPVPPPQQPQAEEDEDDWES
UniProt Q9H9S4: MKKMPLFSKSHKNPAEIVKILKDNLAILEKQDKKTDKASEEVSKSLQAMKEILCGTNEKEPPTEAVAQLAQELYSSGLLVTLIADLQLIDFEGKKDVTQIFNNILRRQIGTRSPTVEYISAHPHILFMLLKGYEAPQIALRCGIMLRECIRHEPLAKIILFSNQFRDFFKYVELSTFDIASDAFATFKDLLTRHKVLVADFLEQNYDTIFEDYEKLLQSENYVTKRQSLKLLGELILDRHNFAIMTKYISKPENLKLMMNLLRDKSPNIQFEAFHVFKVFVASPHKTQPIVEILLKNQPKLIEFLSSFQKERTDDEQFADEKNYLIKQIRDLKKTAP
UniProt Q9HAV7: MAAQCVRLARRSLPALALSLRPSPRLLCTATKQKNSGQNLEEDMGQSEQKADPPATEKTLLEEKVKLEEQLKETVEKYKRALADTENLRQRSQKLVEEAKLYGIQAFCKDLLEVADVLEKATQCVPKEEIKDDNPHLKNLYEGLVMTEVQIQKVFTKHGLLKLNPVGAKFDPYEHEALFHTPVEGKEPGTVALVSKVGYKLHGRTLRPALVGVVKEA
UniProt Q9NP66: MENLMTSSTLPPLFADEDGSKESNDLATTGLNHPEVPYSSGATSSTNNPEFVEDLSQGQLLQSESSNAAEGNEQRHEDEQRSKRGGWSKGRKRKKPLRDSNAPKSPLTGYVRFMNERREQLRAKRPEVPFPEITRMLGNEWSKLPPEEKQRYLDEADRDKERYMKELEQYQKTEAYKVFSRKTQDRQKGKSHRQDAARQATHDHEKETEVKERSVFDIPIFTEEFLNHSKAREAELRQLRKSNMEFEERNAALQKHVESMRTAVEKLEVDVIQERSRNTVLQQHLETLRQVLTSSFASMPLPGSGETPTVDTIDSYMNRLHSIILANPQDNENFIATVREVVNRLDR
UniProt Q9NQZ2: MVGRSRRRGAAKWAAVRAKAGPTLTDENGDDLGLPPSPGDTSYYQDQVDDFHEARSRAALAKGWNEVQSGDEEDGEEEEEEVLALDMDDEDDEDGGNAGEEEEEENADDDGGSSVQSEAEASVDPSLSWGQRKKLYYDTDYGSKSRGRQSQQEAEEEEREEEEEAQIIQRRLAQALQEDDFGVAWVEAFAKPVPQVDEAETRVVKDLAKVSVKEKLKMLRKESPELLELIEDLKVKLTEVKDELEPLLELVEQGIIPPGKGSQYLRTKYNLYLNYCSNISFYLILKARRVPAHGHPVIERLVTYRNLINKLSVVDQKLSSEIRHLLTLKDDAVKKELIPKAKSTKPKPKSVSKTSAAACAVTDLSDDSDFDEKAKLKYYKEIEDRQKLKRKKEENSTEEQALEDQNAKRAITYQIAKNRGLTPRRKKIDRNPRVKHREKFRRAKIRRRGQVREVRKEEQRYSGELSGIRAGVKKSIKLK
UniProt Q9NPE3: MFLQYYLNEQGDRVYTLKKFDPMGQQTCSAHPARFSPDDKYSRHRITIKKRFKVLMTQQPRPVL
UniProt Q9HBF4: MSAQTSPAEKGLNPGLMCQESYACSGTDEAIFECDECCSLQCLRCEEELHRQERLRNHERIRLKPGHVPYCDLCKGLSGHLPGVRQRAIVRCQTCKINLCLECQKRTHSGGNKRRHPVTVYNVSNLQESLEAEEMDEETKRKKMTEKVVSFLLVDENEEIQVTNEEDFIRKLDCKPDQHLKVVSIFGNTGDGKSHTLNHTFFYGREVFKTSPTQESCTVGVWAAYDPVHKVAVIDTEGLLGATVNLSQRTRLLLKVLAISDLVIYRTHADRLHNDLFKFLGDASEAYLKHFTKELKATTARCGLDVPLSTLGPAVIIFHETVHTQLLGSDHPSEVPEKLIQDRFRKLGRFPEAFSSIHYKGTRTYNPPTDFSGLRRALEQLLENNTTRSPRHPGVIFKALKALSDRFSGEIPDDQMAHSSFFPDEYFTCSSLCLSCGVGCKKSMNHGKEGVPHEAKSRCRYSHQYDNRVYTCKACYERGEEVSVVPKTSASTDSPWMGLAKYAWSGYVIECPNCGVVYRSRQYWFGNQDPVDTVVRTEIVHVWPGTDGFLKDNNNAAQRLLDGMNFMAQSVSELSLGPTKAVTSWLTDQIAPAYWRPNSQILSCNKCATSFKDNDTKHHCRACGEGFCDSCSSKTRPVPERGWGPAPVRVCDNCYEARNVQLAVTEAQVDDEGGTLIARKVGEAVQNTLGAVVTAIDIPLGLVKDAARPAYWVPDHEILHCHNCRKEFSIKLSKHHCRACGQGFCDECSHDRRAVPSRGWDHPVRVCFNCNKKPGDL
UniProt Q9HCP0: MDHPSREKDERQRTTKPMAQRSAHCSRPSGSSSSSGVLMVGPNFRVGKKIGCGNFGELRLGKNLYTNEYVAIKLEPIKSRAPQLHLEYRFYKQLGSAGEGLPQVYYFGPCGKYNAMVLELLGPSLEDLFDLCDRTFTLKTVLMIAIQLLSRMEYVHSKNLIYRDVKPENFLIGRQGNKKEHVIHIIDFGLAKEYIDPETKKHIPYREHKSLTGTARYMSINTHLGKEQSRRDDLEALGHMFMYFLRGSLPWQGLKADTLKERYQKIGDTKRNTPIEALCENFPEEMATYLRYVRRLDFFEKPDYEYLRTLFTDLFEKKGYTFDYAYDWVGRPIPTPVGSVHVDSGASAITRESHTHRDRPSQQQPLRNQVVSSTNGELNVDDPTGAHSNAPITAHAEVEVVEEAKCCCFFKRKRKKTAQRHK
UniProt Q9NS93: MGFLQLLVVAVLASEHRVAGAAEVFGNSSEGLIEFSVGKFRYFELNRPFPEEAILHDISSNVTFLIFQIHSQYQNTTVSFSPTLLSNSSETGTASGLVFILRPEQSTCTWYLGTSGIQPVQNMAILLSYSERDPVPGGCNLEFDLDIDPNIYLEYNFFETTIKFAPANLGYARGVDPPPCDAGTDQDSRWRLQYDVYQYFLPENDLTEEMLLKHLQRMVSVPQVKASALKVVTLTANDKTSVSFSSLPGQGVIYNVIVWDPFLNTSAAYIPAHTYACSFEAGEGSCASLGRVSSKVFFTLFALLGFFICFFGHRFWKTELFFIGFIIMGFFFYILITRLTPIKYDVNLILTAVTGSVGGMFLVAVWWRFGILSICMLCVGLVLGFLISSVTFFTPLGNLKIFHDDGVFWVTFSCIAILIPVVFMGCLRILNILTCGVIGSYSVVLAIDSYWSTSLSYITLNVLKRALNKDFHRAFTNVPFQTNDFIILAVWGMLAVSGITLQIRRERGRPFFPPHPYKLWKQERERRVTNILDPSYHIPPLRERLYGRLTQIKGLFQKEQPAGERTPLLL
UniProt Q9NPJ6: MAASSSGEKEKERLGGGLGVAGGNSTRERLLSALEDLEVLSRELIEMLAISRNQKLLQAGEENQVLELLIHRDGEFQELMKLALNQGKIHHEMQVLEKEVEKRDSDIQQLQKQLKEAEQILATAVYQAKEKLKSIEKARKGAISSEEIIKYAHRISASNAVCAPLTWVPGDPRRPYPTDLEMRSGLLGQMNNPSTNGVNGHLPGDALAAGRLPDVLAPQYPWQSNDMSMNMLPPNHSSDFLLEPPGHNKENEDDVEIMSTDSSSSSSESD
UniProt Q9HBL8: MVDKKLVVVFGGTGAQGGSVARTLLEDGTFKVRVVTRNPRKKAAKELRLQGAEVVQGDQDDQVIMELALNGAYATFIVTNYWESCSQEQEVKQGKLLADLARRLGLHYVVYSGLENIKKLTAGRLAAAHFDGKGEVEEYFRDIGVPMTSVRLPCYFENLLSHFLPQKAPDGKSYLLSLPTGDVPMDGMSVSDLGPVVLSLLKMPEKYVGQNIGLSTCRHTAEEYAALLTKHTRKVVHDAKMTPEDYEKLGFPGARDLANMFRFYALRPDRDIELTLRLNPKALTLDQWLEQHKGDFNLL

Compound: CCc1cnccc1C(=O)Nc1cc2c(cc1F)NC(=O)CC2
Test: melting temperature shift (DMSO Tm minus MBE1-treated Tm) in cellular thermal proteome profiling; higher = less thermal stabilization by MBE1 (negative = stabilized by MBE1)
Conditions: A375

Work on PNO1 (UniProt Q9NRX1) yielded a melting temperature shift (MBE1 concentration: 100 nM) of -0.0706 °C and a melting temperature shift (MBE1 concentration: 1 uM) of -0.409 °C.
DCP1A (UniProt Q9NPI6) gave a melting temperature shift (MBE1 concentration: 100 nM) of -1.55 °C and a melting temperature shift (MBE1 concentration: 1 uM) of -1.19 °C.
L2HGDH (UniProt Q9H9P8) gave a melting temperature shift (MBE1 concentration: 100 nM) of -1.7 °C and a melting temperature shift (MBE1 concentration: 1 uM) of 0.241 °C.
Work on JPH1 (UniProt Q9HDC5) yielded a melting temperature shift (MBE1 concentration: 100 nM) of 0.586 °C and a melting temperature shift (MBE1 concentration: 1 uM) of 0.14 °C.
For UniProt Q9HD47, the melting temperature shift (MBE1 concentration: 100 nM) was -1.88 °C and the melting temperature shift (MBE1 concentration: 1 uM) was 0.0794 °C.
UniProt Q9NV79 was tested, and the melting temperature shift (MBE1 concentration: 100 nM) was 0.318 °C.
In the case of UniProt Q9HB20, the melting temperature shift (MBE1 concentration: 1 uM) is reported as -1.81 °C.
ABCB8 (UniProt Q9NUT2) gave a melting temperature shift (MBE1 concentration: 100 nM) of -0.581 °C and a melting temperature shift (MBE1 concentration: 1 uM) of 0.171 °C.
UniProt Q9NPG3 was tested, and the melting temperature shift (MBE1 concentration: 1 uM) was -0.961 °C.
With APOBEC3C (UniProt Q9NRW3) the melting temperature shift (MBE1 concentration: 100 nM) was -0.104 °C and the melting temperature shift (MBE1 concentration: 1 uM) was 0.483 °C.
DIABLO (UniProt Q9NR28) showed a melting temperature shift (MBE1 concentration: 100 nM) of -1.58 °C and a melting temperature shift (MBE1 concentration: 1 uM) of -1.31 °C.
In the case of POLR1B (UniProt Q9H9Y6), the melting temperature shift (MBE1 concentration: 100 nM) is reported as -1.21 °C and the melting temperature shift (MBE1 concentration: 1 uM) is reported as -0.0897 °C.
Target SLC25A19 (UniProt Q9HC21) has a melting temperature shift (MBE1 concentration: 1 uM) of -2.05 °C.
UniProt Q9HCH3 was tested, and the melting temperature shift (MBE1 concentration: 100 nM) was 0.385 °C.
In the case of BAZ1A (UniProt Q9NRL2), the melting temperature shift (MBE1 concentration: 100 nM) is reported as -0.31 °C and the melting temperature shift (MBE1 concentration: 1 uM) is reported as -0.506 °C.
In the case of UniProt Q9NU53, the melting temperature shift (MBE1 concentration: 100 nM) is reported as -8.04 °C.
Work on LUC7L (UniProt Q9NQ29) yielded a melting temperature shift (MBE1 concentration: 100 nM) of -0.0855 °C and a melting temperature shift (MBE1 concentration: 1 uM) of 0.684 °C.
Target SMYD2 (UniProt Q9NRG4) has a melting temperature shift (MBE1 concentration: 1 uM) of 0.993 °C.
Work on CHRAC1 (UniProt Q9NRG0) yielded a melting temperature shift (MBE1 concentration: 100 nM) of -0.202 °C.
Target ALG13 (UniProt Q9NP73) has a melting temperature shift (MBE1 concentration: 100 nM) of -0.114 °C and a melting temperature shift (MBE1 concentration: 1 uM) of -0.959 °C.
UniProt Q9HCH5 showed a melting temperature shift (MBE1 concentration: 1 uM) of 0.476 °C.
With CUTC (UniProt Q9NTM9) the melting temperature shift (MBE1 concentration: 100 nM) was -0.167 °C and the melting temperature shift (MBE1 concentration: 1 uM) was 0.556 °C.
Work on UniProt Q9HB09 yielded a melting temperature shift (MBE1 concentration: 1 uM) of 0.586 °C.
UniProt Q9HCE3 was tested, and the melting temperature shift (MBE1 concentration: 100 nM) was -0.669 °C and the melting temperature shift (MBE1 concentration: 1 uM) was -0.622 °C.
In the case of CHD8 (UniProt Q9HCK8), the melting temperature shift (MBE1 concentration: 100 nM) is reported as -0.442 °C and the melting temperature shift (MBE1 concentration: 1 uM) is reported as -0.256 °C.
For DCAF13 (UniProt Q9NV06), the melting temperature shift (MBE1 concentration: 100 nM) was -0.25 °C and the melting temperature shift (MBE1 concentration: 1 uM) was 0.556 °C.
BMP2K (UniProt Q9NSY1) was tested, and the melting temperature shift (MBE1 concentration: 100 nM) was 0.739 °C and the melting temperature shift (MBE1 concentration: 1 uM) was 0.183 °C.
DMAP1 (UniProt Q9NPF5) was tested, and the melting temperature shift (MBE1 concentration: 100 nM) was -0.416 °C and the melting temperature shift (MBE1 concentration: 1 uM) was -0.788 °C.
GORASP2 (UniProt Q9H8Y8) showed a melting temperature shift (MBE1 concentration: 100 nM) of 0.965 °C and a melting temperature shift (MBE1 concentration: 1 uM) of 0.354 °C.
In the case of C1GALT1 (UniProt Q9NS00), the melting temperature shift (MBE1 concentration: 100 nM) is reported as -0.637 °C and the melting temperature shift (MBE1 concentration: 1 uM) is reported as -0.148 °C.
Target DYNLRB1 (UniProt Q9NP97) has a melting temperature shift (MBE1 concentration: 100 nM) of 0.13 °C and a melting temperature shift (MBE1 concentration: 1 uM) of -2.1 °C.
UniProt Q9NUL5 was tested, and the melting temperature shift (MBE1 concentration: 100 nM) was -6.5 °C.
In the case of OSGEP (UniProt Q9NPF4), the melting temperature shift (MBE1 concentration: 100 nM) is reported as -0.653 °C and the melting temperature shift (MBE1 concentration: 1 uM) is reported as -0.391 °C.
Target NECTIN3 (UniProt Q9NQS3) has a melting temperature shift (MBE1 concentration: 1 uM) of -2.98 °C.
TOMM22 (UniProt Q9NS69) showed a melting temperature shift (MBE1 concentration: 100 nM) of -2.67 °C and a melting temperature shift (MBE1 concentration: 1 uM) of -0.0183 °C.
Target UniProt Q9H8W3 has a melting temperature shift (MBE1 concentration: 1 uM) of -4.5 °C.
Work on UniProt Q9H9S5 yielded a melting temperature shift (MBE1 concentration: 100 nM) of 0.995 °C and a melting temperature shift (MBE1 concentration: 1 uM) of -1.64 °C.
STRN4 (UniProt Q9NRL3) showed a melting temperature shift (MBE1 concentration: 100 nM) of 0.739 °C and a melting temperature shift (MBE1 concentration: 1 uM) of 0.0366 °C.
Work on BIN3 (UniProt Q9NQY0) yielded a melting temperature shift (MBE1 concentration: 100 nM) of -1.33 °C and a melting temperature shift (MBE1 concentration: 1 uM) of -0.365 °C.
COG4 (UniProt Q9H9E3) gave a melting temperature shift (MBE1 concentration: 100 nM) of -0.329 °C and a melting temperature shift (MBE1 concentration: 1 uM) of -0.325 °C.
UniProt Q9NQA3 gave a melting temperature shift (MBE1 concentration: 100 nM) of -0.353 °C and a melting temperature shift (MBE1 concentration: 1 uM) of -0.485 °C.
In the case of C17ORF75 (UniProt Q9HAS0), the melting temperature shift (MBE1 concentration: 100 nM) is reported as -0.359 °C and the melting temperature shift (MBE1 concentration: 1 uM) is reported as 0.482 °C.
Target ABHD10 (UniProt Q9NUJ1) has a melting temperature shift (MBE1 concentration: 100 nM) of -1.69 °C and a melting temperature shift (MBE1 concentration: 1 uM) of -1.27 °C.
For MED20 (UniProt Q9H944), the melting temperature shift (MBE1 concentration: 100 nM) was 0.336 °C and the melting temperature shift (MBE1 concentration: 1 uM) was 0.458 °C.
In the case of UniProt Q9H9S4, the melting temperature shift (MBE1 concentration: 100 nM) is reported as -1.14 °C and the melting temperature shift (MBE1 concentration: 1 uM) is reported as -0.263 °C.
Target UniProt Q9NVA2 has a melting temperature shift (MBE1 concentration: 100 nM) of -1.43 °C and a melting temperature shift (MBE1 concentration: 1 uM) of -1.62 °C.
Target GRPEL1 (UniProt Q9HAV7) has a melting temperature shift (MBE1 concentration: 100 nM) of -0.248 °C and a melting temperature shift (MBE1 concentration: 1 uM) of -0.171 °C.
GOPC (UniProt Q9HD26) gave a melting temperature shift (MBE1 concentration: 100 nM) of -0.463 °C and a melting temperature shift (MBE1 concentration: 1 uM) of -0.82 °C.
Target HMG20A (UniProt Q9NP66) has a melting temperature shift (MBE1 concentration: 100 nM) of -0.14 °C and a melting temperature shift (MBE1 concentration: 1 uM) of 0.446 °C.
For UniProt Q9NPF2, the melting temperature shift (MBE1 concentration: 100 nM) was -3.89 °C and the melting temperature shift (MBE1 concentration: 1 uM) was -0.362 °C.
Target MRPL47 (UniProt Q9HD33) has a melting temperature shift (MBE1 concentration: 100 nM) of 0.47 °C and a melting temperature shift (MBE1 concentration: 1 uM) of 0.324 °C.
GPBP1L1 (UniProt Q9HC44) showed a melting temperature shift (MBE1 concentration: 100 nM) of -2.54 °C and a melting temperature shift (MBE1 concentration: 1 uM) of 0.788 °C.
For ABCB6 (UniProt Q9NP58), the melting temperature shift (MBE1 concentration: 100 nM) was -0.805 °C and the melting temperature shift (MBE1 concentration: 1 uM) was 0.0335 °C.
Work on UTP3 (UniProt Q9NQZ2) yielded a melting temperature shift (MBE1 concentration: 100 nM) of 0.782 °C and a melting temperature shift (MBE1 concentration: 1 uM) of 0.311 °C.
NOP10 (UniProt Q9NPE3) showed a melting temperature shift (MBE1 concentration: 100 nM) of -1.7 °C and a melting temperature shift (MBE1 concentration: 1 uM) of -0.0855 °C.
TM9SF3 (UniProt Q9HD45) gave a melting temperature shift (MBE1 concentration: 100 nM) of -0.0805 °C and a melting temperature shift (MBE1 concentration: 1 uM) of 0.751 °C.
UniProt Q9HBF4 was tested, and the melting temperature shift (MBE1 concentration: 100 nM) was -0.137 °C and the melting temperature shift (MBE1 concentration: 1 uM) was -0.473 °C.
SCPEP1 (UniProt Q9HB40) showed a melting temperature shift (MBE1 concentration: 100 nM) of -0.835 °C and a melting temperature shift (MBE1 concentration: 1 uM) of -1.32 °C.
In the case of UniProt Q9HCP0, the melting temperature shift (MBE1 concentration: 100 nM) is reported as 0.0268 °C and the melting temperature shift (MBE1 concentration: 1 uM) is reported as -0.617 °C.
SPATS2L (UniProt Q9NUQ6) showed a melting temperature shift (MBE1 concentration: 100 nM) of 0.254 °C and a melting temperature shift (MBE1 concentration: 1 uM) of 0.188 °C.
FBXO28 (UniProt Q9NVF7) gave a melting temperature shift (MBE1 concentration: 100 nM) of -0.757 °C and a melting temperature shift (MBE1 concentration: 1 uM) of -0.79 °C.
TM7SF3 (UniProt Q9NS93) gave a melting temperature shift (MBE1 concentration: 100 nM) of -1.3 °C and a melting temperature shift (MBE1 concentration: 1 uM) of -0.559 °C.
MED4 (UniProt Q9NPJ6) gave a melting temperature shift (MBE1 concentration: 100 nM) of -0.719 °C and a melting temperature shift (MBE1 concentration: 1 uM) of 0.427 °C.
In the case of RBM12 (UniProt Q9NTZ6), the melting temperature shift (MBE1 concentration: 100 nM) is reported as -0.776 °C and the melting temperature shift (MBE1 concentration: 1 uM) is reported as -0.193 °C.
For ACSS2 (UniProt Q9NR19), the melting temperature shift (MBE1 concentration: 100 nM) was 0.293 °C and the melting temperature shift (MBE1 concentration: 1 uM) was 0.128 °C.
WDR41 (UniProt Q9HAD4) showed a melting temperature shift (MBE1 concentration: 100 nM) of -1.06 °C and a melting temperature shift (MBE1 concentration: 1 uM) of 0.389 °C.
PARVB (UniProt Q9HBI1) was tested, and the melting temperature shift (MBE1 concentration: 100 nM) was 0.666 °C and the melting temperature shift (MBE1 concentration: 1 uM) was 0.354 °C.
For BRD7 (UniProt Q9NPI1), the melting temperature shift (MBE1 concentration: 100 nM) was -0.269 °C and the melting temperature shift (MBE1 concentration: 1 uM) was -0.237 °C.
MBNL1 (UniProt Q9NR56) showed a melting temperature shift (MBE1 concentration: 100 nM) of -0.402 °C and a melting temperature shift (MBE1 concentration: 1 uM) of 0.83 °C.
UniProt Q9HC62 showed a melting temperature shift (MBE1 concentration: 100 nM) of 1.54 °C and a melting temperature shift (MBE1 concentration: 1 uM) of 0.953 °C.
Target PNPLA8 (UniProt Q9NP80) has a melting temperature shift (MBE1 concentration: 100 nM) of 0.376 °C and a melting temperature shift (MBE1 concentration: 1 uM) of -0.235 °C.
NMRAL1 (UniProt Q9HBL8) was tested, and the melting temperature shift (MBE1 concentration: 100 nM) was 0.171 °C and the melting temperature shift (MBE1 concentration: 1 uM) was 0.574 °C.
